According to the supplement of paper PMC10338343:
± gives the standard deviation. The list shows a part of the results, in another mix than the full data. The uncertainty is large for many entries.

test system: MIWI (PIWIL1) piRISC loaded with piRNA #1 (30 nt); assay: pre-steady-state target cleavage rate (min^-1); higher = faster piRNA-guided slicing of the target; conditions: guide: piRNA #1 5'p-UGAGGUAGUAGGUUGUAUAGUAUCCAGAGG; auxiliary factor: 500 nM mouse GTSF1
How it was run: (§1)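 Cleave-'n-Seq: a transcribed, DNA-blocked target RNA library (0.1 nM) was mixed with 1 nM active affinity-purified piRISC carrying one synthetic guide, with or without 500 nM GTSF1 partner protein, in HEPES–potassium acetate buffer at 33 °C for 0–8 or 0–960 min. Uncleaved targets were sequenced and normalised to depth and to weakly complementary targets. Three trials were pooled, and k3 was capped at 0.0001 min^-1. The pre-steady-state cleavage rate came from a burst-and-steady-state fit.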

Sequence | pre-steady-state target cleavage rate
GCUCUGGAAACUAUUCAACCUACUACCUCA | 1.68 ± 0.12
GGACUGGAUAGUAUACAACCUUCUACCUCA | 0.575 ± 0.045
GGUCUGGAUACUAUACAACCUCUACCUCA | 0.00142 ± 0.0039
GGAGACCUAUCUUUACAACCAACUACCUCA | 0.00171 ± 0.0049
GGUCUGGAUACUAUACAACCUACUAGGUCA | 0.000442 ± 0.0055
GGUCUGCAUACUAUACAACCUACUACCUGA | 0.677 ± 0.13
GCUCUGGAUACUAUACAUGGAUGAUGGAGA [g14:g29:cont:t1A] | 0.000257 ± 0.025
GGUCUGGAUACUAUACAACCUACUUCCACA | 0.00085 ± 0.0058
GGAGACCUAUGUUUACAACCUACUAGCUCA | 0.00217 ± 0.0037
CCUCAGGAUACUAUACAUCCUACUACCUCA | 2.03 ± 0.12
GCUCUGGAUACUAUACAACCUACUACCUCG [g2:g29:cont:t1G] | 1.29 ± 0.098
GCUCUGGAUACUAUACAACCCUACUACCUCA | 0.00284 ± 0.0037
GGUCAGGAUACUAUACAUCCUACUACCUCA | 1.54 ± 0.079
GGAGACCUAUGAAUACAAGCUACUACGUCA | 0.000458 ± 0.0068
GCUCUGGAUACUAUACAAGCUACUAGCUCA | 0.745 ± 0.073
GGACUGGAUACUAUACAACCUACUAGCUGA | 0.000451 ± 0.0071
GCUCUGGAAACUAUACAACCUACUACCACA | 1.42 ± 0.15
GGAGACCUUACUAUACAACCUACUACCCCA | 0.956 ± 0.086
GGAGACCAUACUUACAACCUACUACCUCA | 0.269 ± 0.028
CCUCAUGGAUACUAUACAACCUACUACCUCA | 2.31 ± 0.13

Sequence | pre-steady-state target cleavage rate
CCUCUGGAUACCUAUACAACCUACUACCUCA | 1.18 ± 0.072
CCUCUGGAUACUAUACUUGGAUGAUGGAGA [g15:g30:cont:t1A] | 0.000927 ± 0.0089
GCUCUGGAUACUAUACAACCUACUACCUUCA | 1.9 ± 0.13
GGAGUGGAUACUAUACAACCUCUACCUCA | 0.00123 ± 0.0047
CCUCUCGAUACUAUACAACCUACUACCUGA | 0.985 ± 0.087
GGAGACCAUACAAUACAACCUACUAGCUCA | 0.486 ± 0.067
GGAGACCUAUGAUAUCAUGGUACUACCUCA | 0.00045 ± 0.0046
GGAGACCUAUGAAUACAACCUACGUACCUCA | 0.0016 ± 0.0029
GGCCUGGAUACUAUACAACCUACUACCUCA | 1.74 ± 0.098
GGAGACCUAUGAUUAUAACCUACUACCUCA | 0.00184 ± 0.004
GGAGACCUAUGAAUCACAACCUACUACCUCA | 0.00228 ± 0.0035
GGAGACCUAUGAUAUGUUGGUUACUACCUCA | 0.00103 ± 0.0046
GGAGACCUAUGAAUACAACGUACAACCUCA | 0.000154 ± 0.023
CCUCUGGAUACUAAACAACCUACAACCUCA | 1.48 ± 0.12
GGAGACCUAUGAACACAACCUACUACCUCA | 0.00134 ± 0.0057
GGAGAGCAUACUAUACAACGUACUACCUCA | 0.557 ± 0.036
CCUCUCCAUACUAUACAACCUACUACCUCA | 2.04 ± 0.12
GGAGACCAUACUAUACAACCUACCUACCUCA | 1.06 ± 0.066
GGAGACCUAUGUAUACAACCUAUCUACCUCA | 0.00105 ± 0.006
GGAGACGAUACUAUACAACCUACUACCGUCA | 0.443 ± 0.065

test system: EfPiwi piRISC loaded with piRNA #1 (26 nt); assay: pre-steady-state target cleavage rate (min^-1); guide: piRNA #1 5'p-UGAGGUAGUAGGUUGUAUAGUAUCCA; MIWI and MILI are mouse PIWI proteins and EfPiwi is from a freshwater sponge; tags in brackets are library labels; higher = faster piRNA-guided slicing of the target; conditions: auxiliary factor: 500 nM Ephydatia muelleri Gtsf1
How it was run: as §1

Sequence | pre-steady-state target cleavage rate
GGAGACCUAUGUUUACAACCUACUAGCUCA | 0.00195 ± 0.0054
GGAGACCAUACAAUACAACCUACUAGCUCA | 0.00531 ± 0.0057
GGAGACCUAUGAUAUCAUGGUACUACCUCA | 0.000828 ± 0.0074
GGAGACCUAUGAAUCACAACCUACUACCUCA | 0.00389 ± 0.0034
GGAGACCUAUGAUAUGUUGGUUACUACCUCA | 0.0006 ± 0.0054
GGAGACCUAUGAAUACAACGUACAACCUCA | 0.000927 ± 0.011
GGAGACCUAUGUAUACAACCUAUCUACCUCA | 0.000241 ± 0.014
GGAGACGAUACUAUACAACCUACUACCGUCA | 0.00873 ± 0.0037
